PMC6821844
Results are given in words; binding and its absence hold for the method and conditions named. Some entries that bind do so weakly or less than the wild type.

Molecular target: partially oxidized DJ-1 (DJ-1Pox, Cys106-SO2-), C-terminal His-tagged (human) (UniProt Q99497)
Experiment: dynamic light scattering; DJ-1 forms at 1 mg/ml, 22 °C, Zetasizer Nano ZS; read together with far-UV circular dichroism; both purified

binding: binds
Substance: partially oxidized DJ-1 (DJ-1Pox, Cys106-SO2-), C-terminal His-tagged (from UniProt Q99497 1-189) (other; other documents disagree on this pair)
